# From PMC12581659
# By UniProt entry, the sequences of proteins in these tests, tags left out.
# UniProt Q9Y572: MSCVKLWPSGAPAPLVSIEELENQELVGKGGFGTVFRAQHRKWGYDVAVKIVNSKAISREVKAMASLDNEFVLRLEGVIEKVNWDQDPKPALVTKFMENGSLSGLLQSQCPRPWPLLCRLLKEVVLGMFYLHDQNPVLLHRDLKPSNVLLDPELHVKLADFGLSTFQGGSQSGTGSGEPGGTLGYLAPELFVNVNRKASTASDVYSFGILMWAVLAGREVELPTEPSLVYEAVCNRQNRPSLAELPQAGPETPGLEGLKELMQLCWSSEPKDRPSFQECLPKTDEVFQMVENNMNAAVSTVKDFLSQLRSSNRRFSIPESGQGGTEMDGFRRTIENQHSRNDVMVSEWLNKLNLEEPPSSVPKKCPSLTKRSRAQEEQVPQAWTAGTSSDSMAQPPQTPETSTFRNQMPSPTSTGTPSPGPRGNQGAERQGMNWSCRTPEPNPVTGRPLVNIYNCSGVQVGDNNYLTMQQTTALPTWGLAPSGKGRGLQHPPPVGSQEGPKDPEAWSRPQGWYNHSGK
# UniProt O43791: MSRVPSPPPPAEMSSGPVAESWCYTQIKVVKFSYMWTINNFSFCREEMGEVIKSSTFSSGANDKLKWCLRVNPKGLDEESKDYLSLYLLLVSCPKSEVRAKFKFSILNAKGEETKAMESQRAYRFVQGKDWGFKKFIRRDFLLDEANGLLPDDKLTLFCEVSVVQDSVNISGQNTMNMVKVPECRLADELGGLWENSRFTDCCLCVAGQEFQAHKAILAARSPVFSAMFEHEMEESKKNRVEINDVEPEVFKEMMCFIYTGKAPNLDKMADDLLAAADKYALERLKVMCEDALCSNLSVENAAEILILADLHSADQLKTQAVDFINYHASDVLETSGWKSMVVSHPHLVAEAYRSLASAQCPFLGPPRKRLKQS
# UniProt Q13619: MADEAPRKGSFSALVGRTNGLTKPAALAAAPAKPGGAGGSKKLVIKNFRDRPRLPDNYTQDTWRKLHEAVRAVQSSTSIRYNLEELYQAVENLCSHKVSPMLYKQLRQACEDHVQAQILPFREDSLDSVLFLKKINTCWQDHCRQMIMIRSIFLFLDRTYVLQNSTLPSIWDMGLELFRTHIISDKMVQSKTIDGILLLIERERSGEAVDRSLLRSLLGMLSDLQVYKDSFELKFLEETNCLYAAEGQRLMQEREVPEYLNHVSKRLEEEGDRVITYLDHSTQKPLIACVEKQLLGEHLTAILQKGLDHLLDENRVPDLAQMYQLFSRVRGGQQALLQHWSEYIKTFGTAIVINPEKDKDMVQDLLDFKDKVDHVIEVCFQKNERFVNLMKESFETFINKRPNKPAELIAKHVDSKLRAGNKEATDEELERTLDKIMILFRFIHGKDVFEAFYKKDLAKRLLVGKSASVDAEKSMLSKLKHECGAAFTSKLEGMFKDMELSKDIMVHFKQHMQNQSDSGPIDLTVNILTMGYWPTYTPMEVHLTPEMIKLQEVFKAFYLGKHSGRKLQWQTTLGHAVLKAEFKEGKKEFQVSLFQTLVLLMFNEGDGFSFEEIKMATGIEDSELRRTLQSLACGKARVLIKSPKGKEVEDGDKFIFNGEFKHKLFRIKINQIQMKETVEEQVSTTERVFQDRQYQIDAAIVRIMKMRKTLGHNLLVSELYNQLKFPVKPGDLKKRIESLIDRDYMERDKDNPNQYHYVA
# UniProt Q13620: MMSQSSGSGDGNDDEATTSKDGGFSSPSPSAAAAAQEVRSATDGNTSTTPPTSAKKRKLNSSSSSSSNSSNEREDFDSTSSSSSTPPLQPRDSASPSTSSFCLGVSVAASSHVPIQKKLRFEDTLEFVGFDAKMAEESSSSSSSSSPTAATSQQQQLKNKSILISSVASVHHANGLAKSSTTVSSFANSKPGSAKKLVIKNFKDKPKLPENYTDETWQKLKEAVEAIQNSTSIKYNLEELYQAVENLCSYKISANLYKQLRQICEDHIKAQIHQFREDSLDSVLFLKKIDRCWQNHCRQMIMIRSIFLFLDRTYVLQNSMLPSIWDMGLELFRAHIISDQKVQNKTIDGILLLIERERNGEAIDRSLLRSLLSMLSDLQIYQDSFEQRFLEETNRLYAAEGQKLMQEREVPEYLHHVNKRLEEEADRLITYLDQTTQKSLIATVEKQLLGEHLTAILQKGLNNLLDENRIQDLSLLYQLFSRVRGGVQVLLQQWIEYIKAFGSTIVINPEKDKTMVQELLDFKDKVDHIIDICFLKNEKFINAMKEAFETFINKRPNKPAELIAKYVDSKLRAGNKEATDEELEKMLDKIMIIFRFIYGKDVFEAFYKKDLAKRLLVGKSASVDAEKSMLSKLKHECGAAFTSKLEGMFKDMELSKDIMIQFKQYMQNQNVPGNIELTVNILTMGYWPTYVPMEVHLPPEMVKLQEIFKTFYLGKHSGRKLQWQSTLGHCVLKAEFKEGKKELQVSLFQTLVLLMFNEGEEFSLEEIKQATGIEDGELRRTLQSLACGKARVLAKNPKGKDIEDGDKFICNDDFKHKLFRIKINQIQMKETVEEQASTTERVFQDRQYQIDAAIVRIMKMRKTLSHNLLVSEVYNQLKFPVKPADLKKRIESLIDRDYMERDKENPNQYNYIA
# UniProt Q93034: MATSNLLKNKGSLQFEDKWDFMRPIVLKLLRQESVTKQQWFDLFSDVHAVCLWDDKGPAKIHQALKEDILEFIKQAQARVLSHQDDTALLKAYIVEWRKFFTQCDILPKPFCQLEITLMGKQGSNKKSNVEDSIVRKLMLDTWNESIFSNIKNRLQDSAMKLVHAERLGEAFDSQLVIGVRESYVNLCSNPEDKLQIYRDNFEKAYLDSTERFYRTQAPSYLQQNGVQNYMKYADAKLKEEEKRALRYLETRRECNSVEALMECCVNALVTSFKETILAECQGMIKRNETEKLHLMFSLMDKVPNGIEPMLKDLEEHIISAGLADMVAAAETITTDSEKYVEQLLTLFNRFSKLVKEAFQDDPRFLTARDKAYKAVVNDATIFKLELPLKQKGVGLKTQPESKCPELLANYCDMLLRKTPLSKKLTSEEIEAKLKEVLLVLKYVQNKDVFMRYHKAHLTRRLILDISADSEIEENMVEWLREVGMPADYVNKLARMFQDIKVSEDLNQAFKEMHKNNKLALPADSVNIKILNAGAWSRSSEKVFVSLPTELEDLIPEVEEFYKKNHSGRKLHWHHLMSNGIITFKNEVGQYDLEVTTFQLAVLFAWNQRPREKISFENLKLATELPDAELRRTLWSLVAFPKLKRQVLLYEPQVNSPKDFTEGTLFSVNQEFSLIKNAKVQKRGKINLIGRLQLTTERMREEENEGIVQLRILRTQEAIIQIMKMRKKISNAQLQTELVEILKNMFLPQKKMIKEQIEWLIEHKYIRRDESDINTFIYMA
# UniProt Q6ZWS8: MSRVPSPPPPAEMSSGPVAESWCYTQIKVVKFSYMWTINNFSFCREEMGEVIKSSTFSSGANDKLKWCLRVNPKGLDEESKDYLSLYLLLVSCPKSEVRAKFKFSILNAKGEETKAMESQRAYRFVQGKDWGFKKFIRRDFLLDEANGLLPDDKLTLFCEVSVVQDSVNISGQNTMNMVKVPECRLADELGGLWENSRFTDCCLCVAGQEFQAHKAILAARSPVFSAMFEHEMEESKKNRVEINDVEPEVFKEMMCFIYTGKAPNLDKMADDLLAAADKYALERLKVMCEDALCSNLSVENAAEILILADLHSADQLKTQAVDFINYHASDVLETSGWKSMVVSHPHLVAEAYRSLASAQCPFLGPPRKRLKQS
# Results are given in words; binding and its absence hold for the method and conditions named. In cells and extracts the contact can be indirect. Some results given as binding are weak or reduced against the parent protein; the word gives no strength.
# Assays:
# [1] = target: Flag-RIPK3 (UniProt Q9Y572); assay: co-IP; HEK293T transfected with Flag-RIPK3 and indicated HA-SPOP or Myc-Cullin; cells treated with 20 μM MG132 for 6 hours before harvesting; immunoblot
# [2] = target: T1, receptor-interacting serine/threonine-protein kinase 1 (RIPK1), endogenous in MEFs (mouse (endogenous in MEFs)) (UniProt Q60855); assay: co-IP; endogenous proteins in SPOP+/+ and SPOP-/- MEFs; cells treated with 20 μM MG132 for 4 hours before harvesting; lysate with antibody overnight at 4°C, Protein A/G magnetic beads
# T1 sequence: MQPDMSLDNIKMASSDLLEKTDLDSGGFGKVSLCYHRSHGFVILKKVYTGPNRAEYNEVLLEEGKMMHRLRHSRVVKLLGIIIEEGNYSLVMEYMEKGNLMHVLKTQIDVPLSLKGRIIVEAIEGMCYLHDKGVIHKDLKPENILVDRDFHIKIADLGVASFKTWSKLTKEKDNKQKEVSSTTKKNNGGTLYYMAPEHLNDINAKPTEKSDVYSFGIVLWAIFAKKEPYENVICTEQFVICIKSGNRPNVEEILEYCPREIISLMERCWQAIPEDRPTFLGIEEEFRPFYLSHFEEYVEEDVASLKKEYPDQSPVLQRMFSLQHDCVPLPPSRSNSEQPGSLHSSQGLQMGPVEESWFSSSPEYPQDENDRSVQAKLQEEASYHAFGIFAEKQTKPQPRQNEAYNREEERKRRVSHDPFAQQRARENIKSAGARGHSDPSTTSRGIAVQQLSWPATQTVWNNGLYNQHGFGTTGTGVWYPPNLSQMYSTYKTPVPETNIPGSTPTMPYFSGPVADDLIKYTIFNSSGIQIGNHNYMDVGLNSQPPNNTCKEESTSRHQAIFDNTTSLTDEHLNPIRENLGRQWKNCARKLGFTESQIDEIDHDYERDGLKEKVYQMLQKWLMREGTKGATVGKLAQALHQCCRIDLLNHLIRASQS
Substance,binding [1],binding [2]
HA-SPOP (WT) (from UniProt O43791 1-374),binds,–
Myc-Cullin4A (from UniProt Q13619 1-759),no binding,–
Myc-Cullin4B (from UniProt Q13620 1-913),no binding,–
Myc-Cullin5 (from UniProt Q93034 1-780),no binding,–
"speckle-type POZ protein (SPOP), endogenous in MEFs (from UniProt Q6ZWS8 1-374)",–,binds
